Reference: PubChem BioAssay AID2533 (National Center for Advancing Translational Sciences (NCATS), 2010)
Inconclusive results, whose numbers are uncertain, are shown with a selection of clear calls. Where the call is inconclusive, the potency comes from a doubtful curve fit. The source made the active and inactive calls. The call rests on the fitted dose curve; in most records, active means well fitted activation curve with a large enough effect; inconclusive means small, poorly fitted or top-dose-only effect; inactive means flat fitted curve, though single readings scatter.

Sequences of proteins named here, by UniProt entry; tags and fusion partners are left off.
UniProt P14618, whole entry, looked up: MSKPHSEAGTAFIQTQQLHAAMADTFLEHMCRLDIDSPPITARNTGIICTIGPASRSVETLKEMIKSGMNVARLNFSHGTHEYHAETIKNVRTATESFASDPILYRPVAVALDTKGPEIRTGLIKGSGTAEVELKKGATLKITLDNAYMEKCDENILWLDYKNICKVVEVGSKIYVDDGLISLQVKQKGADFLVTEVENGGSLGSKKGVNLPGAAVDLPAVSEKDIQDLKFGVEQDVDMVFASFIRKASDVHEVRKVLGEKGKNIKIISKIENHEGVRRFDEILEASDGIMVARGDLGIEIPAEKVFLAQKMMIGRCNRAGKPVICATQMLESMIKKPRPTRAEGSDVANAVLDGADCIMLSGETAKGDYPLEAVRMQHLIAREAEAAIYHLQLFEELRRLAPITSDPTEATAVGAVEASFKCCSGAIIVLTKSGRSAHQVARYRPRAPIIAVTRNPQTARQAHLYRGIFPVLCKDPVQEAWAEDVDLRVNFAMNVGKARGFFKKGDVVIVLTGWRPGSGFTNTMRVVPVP

target: Pyruvate kinase PKM (Homo sapiens) (UniProt P14618); assay: Confirmation Concentration-Response Assay for Activators of Human Muscle isoform 2 Pyruvate Kinase: for Probe SAR; conditions: purified PKM2, ATP generation, Kinase-Glo luminescence; activity change, positive = activation: at 57.5 µM (top of the series); further: nearly all actives have a fitted effect of over 60% in size; on activity change, positive = activation: % of control where 0% means no effect
From the text: NIH Chemical Genomics Center [NCGC]
Matthew G. Vander Heiden, M.D., Ph.D. [Harvard Medical School, 77 Avenue Louis Pasteur, Boston, MA 02115]
Human pyruvate kinase muscle 2 (hPK-M2) enzyme was supplied as a highly purified (>95% pure) preparation from Harvard Medical School and assayed for its ability to generate ATP from ADP using phosphoenolpyruvate (PEP) as a substrate. ATP generation was detected in a coupled reaction by luciferase-mediated luminescence, an ATP-dependent process. […] The enzyme was assayed at an intermediate level of activity to screen for both inhibitors and activators.
NCGC Assay Protocol Summary:
Three uL of substrate mix (at r.t.) in assay buffer (50 mM Imidazole pH7.2, 50 mM KCl, 7 mM MgCl2, 0.01% Tween 20, 0.05% BSA) was dispensed into white solid bottom 1,536 well microtiter plates so that the final concentrations of substrates in the assay were 0.1 mM ADP and 0.5 mM PEP. 23 nL of compound were delivered by a pin tool and 1 uL of enzyme mix (final concentration of 0.1 nM) in assay buffer (4 degree Celsius) was added. Plates were incubated at room temperature for 1 hour. Two uL of detection mix (Kinase-Glo, Promega; at 4 degree Celsius protected from light) was added and luminescence read by a ViewLux (Perkin Elmer) at 1 second exposure/plate. Data were normalized to the uninhibited (column 3) and AC100 inhibition (no enzyme in column 2). To monitor activation, the first column contained a titration of the activator, NCGC00031955-03 (16-point 1:2 dilutions in duplicate starting at 57 uM) and the first 16 rows of column 4 contained 57 uM of NCGC00031955-03.
Potency means the concentration at half of the fitted maximal effect.

SMILES | Potency | activity change, positive = activation
CC(=O)Nc1ccc(S(=O)(=O)N2CCN(S(=O)(=O)c3c(F)cccc3F)CC2)cc1 | inconclusive: 6.51 µM [rising, full curve] | –
Cc1ccc(NS(=O)(=O)c2cc3c(cc2N2CCCCC2)NC(=O)CC3)cc1C | inconclusive: 20.6 µM [rising, partial curve] | –
Cc1ccc2nc(-c3ccc(C)o3)c(Nc3ccc(F)cc3)n2c1 | – | inactive: 16%
CC(=O)Nc1ccc(S(=O)(=O)N2CCN(S(=O)(=O)c3ccc4c(c3)OCCO4)CC2)cc1 | active: 1.63 µM | –
O=S1(=O)N=C(Oc2ccc3ccccc3c2)c2ccccc21 | – | inactive: 3.06%
Cc1ccc(NS(=O)(=O)c2ccc(-c3ccccc3)cc2)cc1C | inconclusive: 36.6 µM [rising, partial curve] | –
Cc1ccc(Nc2c(-c3ccsc3)nc3cccc(C)n23)cc1 | – | inactive: 6.9%
O=C1CCc2cc(S(=O)(=O)Nc3cccc(B(O)O)c3)ccc2N1 | inconclusive: 6.51 µM [rising, partial curve] | –
COc1cc(F)c(S(=O)(=O)N2CCCN(S(=O)(=O)c3ccc(N)cc3)CC2)c(F)c1 | active: 1.3 µM | –
CN(C)c1cccc(S(=O)(=O)N2CCN(S(=O)(=O)c3ccc4c(c3)OCCO4)CC2)c1 | inconclusive: 0.0819 µM [rising, full curve] | –
Cc1ccc(NS(=O)(=O)c2cccc(C(=O)O)c2)cc1C | inconclusive: 29.1 µM [rising, single point] | –
COC(=O)c1ccccc1S(=O)(=O)Nc1cc(=O)c2ccccc2[nH]1 | – | inactive: 0.863%
Cc1ccc(Nc2c(-c3ccc(C)s3)nc3cccc(C)n23)cc1 | inconclusive: 23.1 µM [rising, partial curve, poor fit] | –
Cc1ccc(NS(=O)(=O)c2ccc3c(c2)CCO3)cc1C | inconclusive: 18.3 µM [rising, partial curve] | –
CNc1cccc(S(=O)(=O)N2CCN(S(=O)(=O)c3ccc4c(c3)OCCO4)CC2)c1 | active: 0.259 µM | –
COc1cc(F)c(S(=O)(=O)N2CCN(S(=O)(=O)c3ccc(NC(C)=O)cc3)CC2)c(F)c1 | active: 13 µM | –
O=C1CCc2cc(S(=O)(=O)Nc3cc(F)cc(Cl)c3)c(F)cc2N1 | inconclusive: 8.19 µM [rising, full curve, poor fit] | –
Cc1ccc(NS(=O)(=O)c2ccc3c(c2)CCN(C(=O)C(F)(F)F)C3)cc1C | inconclusive: 23.1 µM [rising, partial curve, poor fit] | –
Cc1ccc(NS(=O)(=O)c2cc3c(cc2-c2ccsc2)NC(=O)CO3)cc1C | inconclusive: 25.9 µM [rising, partial curve, poor fit] | –
O=C1c2ccccc2C(=O)N1c1cccc2cccnc12 | – | inactive: 7.05%

SMILES | Potency | activity change, positive = activation
N#Cc1ccccc1OC1=NS(=O)(=O)c2ccccc21 | – | inactive: 5.45%
Cc1ccc(NS(=O)(=O)c2cccc(F)c2)cc1C | inconclusive: 10.3 µM [rising, full curve] | –
Cc1ccc(NS(=O)(=O)c2ccc(F)cc2)cc1C | active: 25.9 µM | –
CSc1cc2c(s1)c1cnn(Cc3cccc(O)c3)c(=O)c1n2C | active: 0.0411 µM | –
Cc1cc(NS(=O)(=O)c2ccc3c(c2)CCC(=O)N3)ccc1F | active: 0.461 µM | –
Cc1ccc(C)c(SC2=NS(=O)(=O)c3ccccc32)c1 | inconclusive: 11.6 µM [falling, partial curve] | –
COc1ccc(NS(=O)(=O)c2ccc3c(c2)CCC(=O)N3)cc1 | inconclusive: 29.1 µM [rising, partial curve] | –
COc1ccc(S(=O)(=O)Nc2ccc(C)c(C)c2)cc1 | inconclusive: 23.1 µM [rising, partial curve] | –
O=S1(=O)N=C(Oc2ccccc2)c2ccccc21 | – | inactive: 10.6%
COc1cc(F)c(S(=O)(=O)N2CCN(S(=O)(=O)c3ccco3)CC2)c(F)c1 | active: 0.183 µM | –
O=C1CCc2cc(S(=O)(=O)Nc3cccc(-c4ccccc4)c3)ccc2N1 | inconclusive: 25.9 µM [rising, partial curve] | –
CC(=O)Nc1cccc(S(=O)(=O)Nc2ccc(C)c(C)c2)c1 | inconclusive: 16.3 µM [rising, partial curve, poor fit] | –
O=C1CCc2cc(S(=O)(=O)Nc3ccc4c(c3)CCC4)ccc2N1 | inconclusive: 5.8 µM [rising, partial curve] | –
COc1ccc(N2C(=O)c3ccccc3S2(=O)=O)cc1 | – | inactive: 4.68%
Cc1ccc(NS(=O)(=O)c2cc3c(cc2-c2ccccc2)NC(=O)CO3)cc1C | inconclusive: 25.9 µM [rising, partial curve] | –
O=C1c2ccccc2C(=O)N1c1noc2ccccc12 | – | inactive: 12.9%
CC(=O)Nc1ccc(S(=O)(=O)Nc2ccc(C)c(C)c2)cc1 | inconclusive: 16.3 µM [rising, partial curve, poor fit] | –
O=C1c2ccccc2C(=O)N1c1cccc(Cl)c1 | – | inactive: 6.37%
Cc1nc(-c2ccc(S(=O)(=O)Nc3ccc(C)c(C)c3)s2)cs1 | inconclusive: 36.6 µM [rising, partial curve, poor fit] | –

Reformatted comma-delimited: part of the list above.
SMILES,Potency,"activity change, positive = activation"
Cc1ccc(C)c(SC2=NS(=O)(=O)c3ccccc32)c1,"inconclusive: 11.6 µM [falling, partial curve]",–
O=C1CCc2cc(S(=O)(=O)Nc3cccc(-c4ccccc4)c3)ccc2N1,"inconclusive: 25.9 µM [rising, partial curve]",–
